Test results reported in PubChem BioAssay AID248 (DTP/NCI, 2004).
The list shows only some results of the screen, not a fair sample: it gathers tests that were run many times, whatever their T/C, doses with no T/C, and many T/C values between a quarter and a half above the control. Other doses and runs of a compound stand elsewhere. T/C is the treated group as % of the vehicle group. Some entries give survivors of the animals treated and no T/C: the source files T/C as zero there, which appears to mark a toxic dose or a test without result, not a measured value. Some doses without a T/C left all or most animals alive at the check, yet need not have been tolerated: the source hardly ever lists a survival T/C far under the control, and the zero likely stands for such cases as well. Survivors were counted at the toxicity check, usually on the fifth day, unless a day is given; later deaths do not show. Schedules are NCI's codes, read here as Q, the interval in days (D) or hours (H), X, the number of doses. For survival time, this PubChem deposit counts one and a half times the control or more as active, and values a quarter to a half above the control carry no call in these data; other NCI protocols may use other cut-offs. Some T/C values are followed by the survivors on the day toxicity was checked, most often the fifth; without a count, all were alive then.

Tested on: L1210 leukemia ip in BDF1 mice, survival T/C
Experiment: NCI In Vivo Anticancer Drug Screen. Data for tumor model L1210 Leukemia (intraperitoneal) in B6D2F1 (BDF1) mice
Details: higher T/C = longer survival
[1] = T/C endpoint: mean survival time, dose: 400.0 mg/kg/injection, schedule: Q01DX001 (ip), vehicle: saline

Q: For CCCCCCCC(=O)OCC(=O)[C@]1(O)Cc2c(O)c3c(c(O)c2[C@@H](OC2CC(N)C(O)C(C)O2)C1)C(=O)c1c(OC)cccc1C3=O (stereo partly drawn), which T/C (T/C endpoint: mean survival time, dose: 1.3 mg/kg/injection, schedule: Q04DX003 (ip), vehicle: alcohol) is on record?
A: 133 % of control

Q: What about the T/C (T/C endpoint: mean survival time, dose: 2.0 mg/kg/injection, schedule: Q04DX003 (ip), vehicle: alcohol) of the same compound?
A: 138 % of control

Q: And the T/C (T/C endpoint: mean survival time, dose: 3.0 mg/kg/injection, schedule: Q04DX003 (ip), vehicle: alcohol)?
A: 141 % of control

Q: What about the T/C (T/C endpoint: median survival time, dose: 0.5 mg/kg/injection, schedule: Q01DX009 (ip), vehicle: water) of the same compound?
A: 131 % of control

Q: What about the T/C (T/C endpoint: median survival time, dose: 0.5 mg/kg/injection, schedule: Q03HX008 (ip), vehicle: water) of the same compound?
A: 144 % of control

Q: What about the T/C (T/C endpoint: median survival time, dose: 0.5 mg/kg/injection, schedule: Q03HX024 (ip), vehicle: water) of the same compound?
A: 131 % of control

Q: What about the T/C (T/C endpoint: median survival time, dose: 1.0 mg/kg/injection, schedule: Q01DX009 (ip), vehicle: water) of the same compound?
A: 127 % of control

Q: What about the T/C (T/C endpoint: median survival time, dose: 1.0 mg/kg/injection, schedule: Q03HX008 (ip), vehicle: water) of the same compound?
A: 131 % of control [9 of 10 alive]

Q: And the T/C (T/C endpoint: median survival time, dose: 2.0 mg/kg/injection, schedule: Q01DX009 (ip), vehicle: water)?
A: 131 % of control

Q: And the survivor count (T/C endpoint: median survival time, dose: 2.0 mg/kg/injection, schedule: Q03HX024 (ip), vehicle: water)?
A: 10 of 10

Q: And the survivor count (T/C endpoint: median survival time, dose: 4.0 mg/kg/injection, schedule: Q03HX008 (ip), vehicle: water)?
A: 4 of 10

Q: What about the survivor count (T/C endpoint: median survival time, dose: 4.0 mg/kg/injection, schedule: Q03HX024 (ip), vehicle: water) of the same compound?
A: 2 of 10

Q: And the T/C (T/C endpoint: median survival time, dose: 5.0 mg/kg/injection, schedule: Q01DX001 (ip), vehicle: water)?
A: 134 % of control

Q: And the survivor count (T/C endpoint: median survival time, dose: 8.0 mg/kg/injection, schedule: Q01DX009 (ip), vehicle: water)?
A: 10 of 10

Q: And the survivor count (T/C endpoint: median survival time, dose: 8.0 mg/kg/injection, schedule: Q03HX008 (ip), vehicle: water)?
A: 0 of 10

Q: And the T/C (T/C endpoint: median survival time, dose: 8.0 mg/kg/injection, schedule: Q04DX003 (ip), vehicle: water)?
A: 134 % of control

Q: What about the survivor count (T/C endpoint: median survival time, dose: 16.0 mg/kg/injection, schedule: Q04DX003 (ip), vehicle: water) of the same compound?
A: 10 of 10

Q: And the survivor count (T/C endpoint: median survival time, dose: 20.0 mg/kg/injection, schedule: Q01DX001 (ip), vehicle: water)?
A: 8 of 10

Q: And the survivor count (T/C endpoint: median survival time, dose: 40.0 mg/kg/injection, schedule: Q01DX001 (ip), vehicle: water)?
A: 4 of 10

Q: What about the survivor count (T/C endpoint: median survival time, dose: 40.0 mg/kg/injection, schedule: Q08DX002 (ip), vehicle: water) of the same compound?
A: 5 of 10

Q: For CCCCCCCCCNC(=O)Nc1cccc(Cl)c1C, which survivor count (T/C endpoint: mean survival time, dose: 400.0 mg/kg/injection, schedule: Q01DX009 (ip), vehicle: saline with Tween-80) is on record?
A: 6 of 6

Q: Which results are given for CCCCCCCCCCCCCC(=O)[O][Sn]([CH2]CCC)([CH2]CCC)[O]C(=O)CCCCCCCCCCCCC?
A: survivor count (T/C endpoint: mean survival time, dose: 25.0 mg/kg/injection, schedule: Q04DX003 (ip), vehicle: other): 1 of 6; survivor count (T/C endpoint: mean survival time, dose: 100.0 mg/kg/injection, schedule: Q04DX003 (ip), vehicle: other): 2 of 6; survivor count (T/C endpoint: mean survival time, dose: 200.0 mg/kg/injection, schedule: Q04DX003 (ip), vehicle: other): 0 of 6; survivor count (T/C endpoint: mean survival time, dose: 400.0 mg/kg/injection, schedule: Q04DX003 (ip), vehicle: other): 1 of 6

Q: Which survivor count (T/C endpoint: mean survival time, dose: 400.0 mg/kg/injection, schedule: Q01DX001 (ip), vehicle: saline with Tween-80) does the source give for CCCCCCCCCCCCCCCCCCOc1cccc(C(F)(F)F)c1 here?
A: 6 of 6

Q: For COC(=O)C(CCC(=O)C=[N+]=N)NC(=O)C(Cl)Cl (stereo not drawn), which T/C (T/C endpoint: mean survival time, dose: 100.0 mg/kg/injection, schedule: Q04DX003 (ip), vehicle: saline with Tween-80) is on record?
A: 142 % of control

Q: What about the T/C (T/C endpoint: mean survival time, dose: 175.0 mg/kg/injection, schedule: Q01DX001 (ip), vehicle: saline) of the same compound?
A: 131 % of control [5 of 6 alive]

Q: What about the T/C (T/C endpoint: mean survival time, dose: 177.0 mg/kg/injection, schedule: Q01DX001 (ip), vehicle: saline) of the same compound?
A: 126 % of control

Q: And the T/C (T/C endpoint: mean survival time, dose: 265.0 mg/kg/injection, schedule: Q01DX001 (ip), vehicle: saline)?
A: 131 % of control

Q: What about the T/C [1] of the same compound?
A: 148 % of control

Q: What about the survivor count [1] of the same compound?
A: 3 of 6

Q: What about the survivor count (T/C endpoint: mean survival time, dose: 600.0 mg/kg/injection, schedule: Q01DX001 (ip), vehicle: saline) of the same compound?
A: 5 of 6
